Source: patent publication US5138035A (Centre National de la Recherche Scientifique, priority 1988, dated 1992)
HELM strings list residues between dots; [ac] is acetyl, [am] amide, other brackets name non-standard units.

Assay: general procedure: solution-phase peptide synthesis; DCC
Conditions: late stage modification step

| Substance | step yield [%] |
| --- | --- |
| PEPTIDE1{[5Am2PhMeSMeBz].G.G.G.G.K}$PEPTIDE1,PEPTIDE1,1:R1-6:R2$$$V2.0 | 48 |
| PEPTIDE1{[5Am2ClMeBz].G.G.G.G.F}$PEPTIDE1,PEPTIDE1,1:R1-6:R2$$$V2.0 | 58 |
